Some of the results follow.
Experiments:
Test in all cases: log2 fold change, soluble protein after heating vs DMSO (PISA); higher = thermal stabilisation; K562 lysate, 10 uM; active = over 0.2 and 3.5 SD of the protein, either way, in both replicates (recomputed)
ibrutinib = compound: C=CC(=O)N1CCC[C@@H](n2nc(-c3ccc(Oc4ccccc4)cc3)c3c(N)ncnc32)C1 [ibrutinib]
Outline: (§1)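 A 30 min treatment with 10 μM compound was applied to crude K562 extract at 1 mg/mL protein in PBS pH 7.4 with 1 mM MgCl2. Heating for 3 min spanned 48°C-58°C, after which aliquots were pooled, adjusted to 0.5% NP-40 at 4°C and spun at 21,000xg for 90 min. TMTpro 16plex LC-MS/MS of the supernatant, with channel sums equalised, gave values recorded as log-two fold change in thermal stability against solvent controls, from duplicates.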

Protein sequences, listed by entry. Tags and fused reporters are not part of them. Lines headed by an entry give the natural chain unless they say otherwise; changes in a name come on top.
UniProt P29218: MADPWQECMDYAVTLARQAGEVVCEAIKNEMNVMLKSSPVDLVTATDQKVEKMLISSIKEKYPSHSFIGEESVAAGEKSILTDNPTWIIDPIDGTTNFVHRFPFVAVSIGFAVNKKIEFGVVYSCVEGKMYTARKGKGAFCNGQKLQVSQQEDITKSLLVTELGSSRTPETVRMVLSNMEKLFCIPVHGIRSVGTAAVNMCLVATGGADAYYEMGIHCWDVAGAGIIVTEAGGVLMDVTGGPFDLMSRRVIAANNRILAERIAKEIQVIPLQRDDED
UniProt Q9Y6K9, whole entry, looked up: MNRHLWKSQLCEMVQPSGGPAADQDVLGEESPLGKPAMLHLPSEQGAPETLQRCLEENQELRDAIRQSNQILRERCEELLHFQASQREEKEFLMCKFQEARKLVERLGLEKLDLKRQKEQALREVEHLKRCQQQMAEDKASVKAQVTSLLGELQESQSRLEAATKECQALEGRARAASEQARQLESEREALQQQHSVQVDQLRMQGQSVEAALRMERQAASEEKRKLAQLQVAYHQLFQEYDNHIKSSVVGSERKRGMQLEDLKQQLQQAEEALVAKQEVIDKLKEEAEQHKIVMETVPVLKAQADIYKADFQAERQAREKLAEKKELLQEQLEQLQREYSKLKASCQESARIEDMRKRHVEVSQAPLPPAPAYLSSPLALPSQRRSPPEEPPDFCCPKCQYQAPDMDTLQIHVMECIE
UniProt P78318: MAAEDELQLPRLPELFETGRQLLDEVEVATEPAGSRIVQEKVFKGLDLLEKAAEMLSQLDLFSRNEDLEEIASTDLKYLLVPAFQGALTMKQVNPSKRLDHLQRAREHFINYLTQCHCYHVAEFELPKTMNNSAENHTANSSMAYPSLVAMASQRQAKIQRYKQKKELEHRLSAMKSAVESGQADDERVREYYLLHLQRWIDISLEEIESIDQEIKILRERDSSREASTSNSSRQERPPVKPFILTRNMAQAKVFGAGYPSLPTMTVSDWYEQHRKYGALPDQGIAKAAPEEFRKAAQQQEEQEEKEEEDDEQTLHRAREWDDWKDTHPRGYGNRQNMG
UniProt Q9Y547: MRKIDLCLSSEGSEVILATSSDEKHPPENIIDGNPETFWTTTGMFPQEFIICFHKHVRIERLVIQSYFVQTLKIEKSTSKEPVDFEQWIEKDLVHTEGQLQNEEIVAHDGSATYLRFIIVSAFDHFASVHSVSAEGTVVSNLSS
UniProt Q96LB3: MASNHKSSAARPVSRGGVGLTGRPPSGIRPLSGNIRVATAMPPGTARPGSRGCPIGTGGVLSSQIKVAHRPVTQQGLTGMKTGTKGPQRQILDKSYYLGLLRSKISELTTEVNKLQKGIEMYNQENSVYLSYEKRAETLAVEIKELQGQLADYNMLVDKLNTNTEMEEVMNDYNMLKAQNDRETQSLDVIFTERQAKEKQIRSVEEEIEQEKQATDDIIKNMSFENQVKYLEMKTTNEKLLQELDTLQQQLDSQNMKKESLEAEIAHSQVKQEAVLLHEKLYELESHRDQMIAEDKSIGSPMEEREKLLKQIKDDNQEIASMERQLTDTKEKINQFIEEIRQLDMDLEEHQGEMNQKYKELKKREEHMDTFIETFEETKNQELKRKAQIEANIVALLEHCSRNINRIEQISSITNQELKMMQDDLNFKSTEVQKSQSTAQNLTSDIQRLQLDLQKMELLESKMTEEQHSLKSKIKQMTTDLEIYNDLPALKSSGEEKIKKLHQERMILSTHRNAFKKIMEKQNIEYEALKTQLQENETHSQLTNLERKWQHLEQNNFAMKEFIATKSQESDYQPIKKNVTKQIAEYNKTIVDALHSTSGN
UniProt Q9NZL4: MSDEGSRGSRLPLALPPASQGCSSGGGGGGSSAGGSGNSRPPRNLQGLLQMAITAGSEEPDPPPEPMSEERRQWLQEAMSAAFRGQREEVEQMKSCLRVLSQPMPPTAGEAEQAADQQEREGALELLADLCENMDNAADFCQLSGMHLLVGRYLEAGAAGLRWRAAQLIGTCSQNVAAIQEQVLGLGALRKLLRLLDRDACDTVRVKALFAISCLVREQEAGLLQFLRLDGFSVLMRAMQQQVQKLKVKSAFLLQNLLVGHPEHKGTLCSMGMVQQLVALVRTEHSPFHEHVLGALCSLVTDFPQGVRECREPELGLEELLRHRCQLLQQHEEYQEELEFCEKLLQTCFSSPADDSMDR
UniProt O43464: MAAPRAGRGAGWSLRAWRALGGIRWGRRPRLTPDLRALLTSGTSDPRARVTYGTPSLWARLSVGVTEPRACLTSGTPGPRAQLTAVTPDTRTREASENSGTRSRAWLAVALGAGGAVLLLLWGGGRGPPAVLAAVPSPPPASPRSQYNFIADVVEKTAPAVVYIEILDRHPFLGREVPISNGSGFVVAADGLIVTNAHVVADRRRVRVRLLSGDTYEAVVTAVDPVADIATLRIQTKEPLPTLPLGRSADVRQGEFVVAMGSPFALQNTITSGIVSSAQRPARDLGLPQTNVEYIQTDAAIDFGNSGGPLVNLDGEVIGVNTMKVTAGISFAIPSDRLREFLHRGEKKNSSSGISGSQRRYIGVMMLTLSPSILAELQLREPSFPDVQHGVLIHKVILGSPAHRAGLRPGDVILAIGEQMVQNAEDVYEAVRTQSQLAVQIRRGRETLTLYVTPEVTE
UniProt Q969P0: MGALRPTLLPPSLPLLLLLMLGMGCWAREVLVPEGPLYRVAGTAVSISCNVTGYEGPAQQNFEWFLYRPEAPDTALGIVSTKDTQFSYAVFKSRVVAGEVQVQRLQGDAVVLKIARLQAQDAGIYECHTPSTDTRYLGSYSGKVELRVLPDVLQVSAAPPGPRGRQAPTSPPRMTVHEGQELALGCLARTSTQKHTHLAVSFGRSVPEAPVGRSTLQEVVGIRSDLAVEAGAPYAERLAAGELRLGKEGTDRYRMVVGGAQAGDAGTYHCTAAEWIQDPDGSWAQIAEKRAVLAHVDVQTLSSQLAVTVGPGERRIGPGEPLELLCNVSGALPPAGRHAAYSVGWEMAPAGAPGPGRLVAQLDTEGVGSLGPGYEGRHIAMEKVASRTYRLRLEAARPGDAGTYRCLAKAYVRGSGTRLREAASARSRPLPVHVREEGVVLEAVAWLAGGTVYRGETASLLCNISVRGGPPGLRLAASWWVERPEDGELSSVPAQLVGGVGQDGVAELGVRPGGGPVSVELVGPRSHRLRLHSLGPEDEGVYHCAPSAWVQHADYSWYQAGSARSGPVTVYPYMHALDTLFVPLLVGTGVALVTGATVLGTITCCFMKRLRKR
UniProt P51553: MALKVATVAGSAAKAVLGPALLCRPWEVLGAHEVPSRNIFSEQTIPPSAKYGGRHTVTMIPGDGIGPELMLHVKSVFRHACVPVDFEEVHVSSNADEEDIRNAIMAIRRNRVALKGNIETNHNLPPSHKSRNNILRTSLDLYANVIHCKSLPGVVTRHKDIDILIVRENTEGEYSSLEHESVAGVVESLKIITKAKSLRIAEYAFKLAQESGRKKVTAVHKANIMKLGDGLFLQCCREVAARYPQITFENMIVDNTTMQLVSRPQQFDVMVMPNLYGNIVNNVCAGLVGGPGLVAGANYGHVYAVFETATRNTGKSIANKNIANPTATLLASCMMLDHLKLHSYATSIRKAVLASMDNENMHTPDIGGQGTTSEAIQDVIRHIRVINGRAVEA
UniProt P05362: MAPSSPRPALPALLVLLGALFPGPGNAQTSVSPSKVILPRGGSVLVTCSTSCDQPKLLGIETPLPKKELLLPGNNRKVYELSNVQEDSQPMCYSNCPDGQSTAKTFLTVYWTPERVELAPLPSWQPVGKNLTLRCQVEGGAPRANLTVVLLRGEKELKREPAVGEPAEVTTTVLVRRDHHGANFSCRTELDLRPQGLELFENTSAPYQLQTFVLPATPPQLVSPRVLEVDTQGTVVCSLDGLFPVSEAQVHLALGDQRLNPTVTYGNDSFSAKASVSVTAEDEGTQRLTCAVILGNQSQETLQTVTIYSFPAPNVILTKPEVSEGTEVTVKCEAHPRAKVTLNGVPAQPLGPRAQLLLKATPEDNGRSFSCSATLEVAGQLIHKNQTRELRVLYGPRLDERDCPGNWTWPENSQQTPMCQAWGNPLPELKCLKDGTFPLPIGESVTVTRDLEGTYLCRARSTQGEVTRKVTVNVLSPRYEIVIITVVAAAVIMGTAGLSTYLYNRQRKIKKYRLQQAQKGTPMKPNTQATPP
UniProt Q9UMF0: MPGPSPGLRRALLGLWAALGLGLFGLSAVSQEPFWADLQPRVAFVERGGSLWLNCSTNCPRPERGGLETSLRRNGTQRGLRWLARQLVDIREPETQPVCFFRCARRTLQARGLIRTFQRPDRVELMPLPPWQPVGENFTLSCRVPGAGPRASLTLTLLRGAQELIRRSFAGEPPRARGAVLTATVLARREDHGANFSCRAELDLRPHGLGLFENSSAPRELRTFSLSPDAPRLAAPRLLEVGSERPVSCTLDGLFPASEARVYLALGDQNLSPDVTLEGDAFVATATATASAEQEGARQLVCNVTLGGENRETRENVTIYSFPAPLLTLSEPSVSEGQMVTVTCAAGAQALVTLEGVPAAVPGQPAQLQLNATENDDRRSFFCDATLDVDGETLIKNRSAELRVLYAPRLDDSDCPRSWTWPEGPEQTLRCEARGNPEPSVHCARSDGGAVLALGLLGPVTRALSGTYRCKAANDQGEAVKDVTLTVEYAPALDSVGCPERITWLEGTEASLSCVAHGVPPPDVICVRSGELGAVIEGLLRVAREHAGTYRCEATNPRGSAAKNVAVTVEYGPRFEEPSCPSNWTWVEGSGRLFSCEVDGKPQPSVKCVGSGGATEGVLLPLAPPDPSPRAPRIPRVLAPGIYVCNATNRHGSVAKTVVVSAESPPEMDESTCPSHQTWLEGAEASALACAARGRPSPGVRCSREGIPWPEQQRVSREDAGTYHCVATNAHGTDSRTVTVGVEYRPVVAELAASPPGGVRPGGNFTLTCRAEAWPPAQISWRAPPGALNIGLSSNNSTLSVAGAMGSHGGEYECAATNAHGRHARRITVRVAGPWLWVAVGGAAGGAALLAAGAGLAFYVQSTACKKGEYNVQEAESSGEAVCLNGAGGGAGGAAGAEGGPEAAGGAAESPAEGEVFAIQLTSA
UniProt O75874, whole entry, looked up: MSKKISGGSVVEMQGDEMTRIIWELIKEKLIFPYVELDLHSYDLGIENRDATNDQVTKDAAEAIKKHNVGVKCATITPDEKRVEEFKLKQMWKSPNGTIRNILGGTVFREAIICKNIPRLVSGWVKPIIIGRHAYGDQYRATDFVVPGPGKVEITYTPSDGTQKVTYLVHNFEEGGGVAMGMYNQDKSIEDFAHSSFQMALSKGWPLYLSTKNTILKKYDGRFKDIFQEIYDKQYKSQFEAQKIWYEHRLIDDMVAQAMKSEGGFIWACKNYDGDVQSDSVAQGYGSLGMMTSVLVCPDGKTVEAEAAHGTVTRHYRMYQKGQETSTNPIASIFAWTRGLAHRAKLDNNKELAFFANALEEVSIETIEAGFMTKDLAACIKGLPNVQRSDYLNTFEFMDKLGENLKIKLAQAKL
UniProt Q70UQ0: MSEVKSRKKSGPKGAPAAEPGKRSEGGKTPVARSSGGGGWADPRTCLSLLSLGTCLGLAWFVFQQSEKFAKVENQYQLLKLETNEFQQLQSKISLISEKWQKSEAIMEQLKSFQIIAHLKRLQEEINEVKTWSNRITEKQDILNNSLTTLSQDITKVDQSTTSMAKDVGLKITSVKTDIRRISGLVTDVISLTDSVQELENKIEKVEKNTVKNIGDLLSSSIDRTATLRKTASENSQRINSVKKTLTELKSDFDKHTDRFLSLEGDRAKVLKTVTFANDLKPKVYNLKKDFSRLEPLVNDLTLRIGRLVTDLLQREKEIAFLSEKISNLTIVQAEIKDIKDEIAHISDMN

[1] = compound: CC(=O)c1cnc2ccc(-c3cc(Cl)c(O)c(Cl)c3)nc2c1N[C@H]1CC[C@H](CN(C)C)CC1
Outline: as §1

ralimetinib = compound: CC(C)(C)Cn1c(N)nc2ccc(-c3[nH]c(C(C)(C)C)nc3-c3ccc(F)cc3)nc21 [ralimetinib]
Outline: as §1

[2] = compound: CC(C)(O)CC(=O)NCCn1ccc2ncnc(Nc3ccc(Oc4cccc(C(F)(F)F)c4)c(Cl)c3)c21
Outline: as §1

[3] = compound: CC(C)C1=C2N=C(C=C(N2N=C1)NCC3=CC=CC=C3)NCCCCCCN
Outline: as §1

[4] = compound: CC1=C(C(CC(=O)N1)C2=CC=C(C=C2)C(F)(F)F)C(=O)NC3=C(C=C4C(=C3)C=NN4)F
Outline: as §1

[5] = compound: CC1=C(C2=C(C=C1)C(=O)C3=CC=CC=C3N2CCCN)C
Outline: as §1

[6] = compound: CC1=C(C=C(C=C1)NC(=O)C2=CC(=CC=C2)C(C)(C)C#N)NC3=CC4=C(C=C3)N=CN(C4=O)C
Outline: as §1

[7] = compound: CC1=C(C=C(C=C1)NC(=O)C2=CC(=CC=C2)N(C)C)NC(=O)C3=CC=C(C=C3)O
Outline: as §1

[8] = compound: CC1=CC=C(C=C1)SC2=C3C=C(SC3=CN=C2)C(=O)N
Outline: as §1

vemurafenib = compound: CCCS(=O)(=O)Nc1ccc(F)c(C(=O)c2c[nH]c3ncc(-c4ccc(Cl)cc4)cc23)c1F [vemurafenib]
Outline: as §1

[9] = compound: CCCS(=O)(=O)Nc1ccc(F)c(C(=O)c2c[nH]c3ncc(Cl)cc23)c1F
Outline: as §1

barasertib = compound: CCN(CCCOc1ccc2c(Nc3cc(CC(=O)Nc4cccc(F)c4)[nH]n3)ncnc2c1)CCOP(=O)(O)O [barasertib]
Outline: as §1

[10] = compound: CC[C@@H]1C(=O)N(C)c2cnc(Nc3ccc(C(=O)NC4CCN(C)CC4)cc3OC)nc2N1C1CCCC1
Outline: as §1

volasertib = compound: CC[C@@H]1C(=O)N(C)c2cnc(Nc3ccc(C(=O)N[C@H]4CC[C@H](N5CCN(CC6CC6)CC5)CC4)cc3OC)nc2N1C(C)C [volasertib]
Outline: as §1

[11] = compound: CCn1c(C(=O)N(C2CC2)C2CC2)cc2c3c(ncn3C)c(Nc3cc(C)n(C)n3)nc21
Outline: as §1

[12] = compound: CCn1cc(-c2ccnc3[nH]c(-c4cccc(CN(C)C)c4)cc23)c(-c2ccc(NC(=O)N(C)C)cc2)n1
Outline: as §1

[13] = compound: CN1CCC(CNc2ccc3ncc(-c4cccc(OC(F)(F)F)c4)n3n2)CC1
Outline: as §1

saracatinib = compound: CN1CCN(CCOc2cc(OC3CCOCC3)c3c(Nc4c(Cl)ccc5c4OCO5)ncnc3c2)CC1 [saracatinib]
Outline: as §1

sotrastaurin = compound: CN1CCN(c2nc(C3=C(c4c[nH]c5ccccc45)C(=O)NC3=O)c3ccccc3n2)CC1 [sotrastaurin]
Outline: as §1

Measured: log2 fold change

IMPA1 isoform 3 (UniProt P29218)
inactive: ibrutinib 0.012 | [1] 0.02 | ralimetinib -0.004 | [2] -0.027 | [3] -0.046 | [4] -0.017 | [5] -0.021 | [6] -0.003 | [7] -0.01 | [8] 0.021 | vemurafenib -0.004 | [9] 0.002 | barasertib -0.035 | [10] 0.015 | volasertib 0.025 | [11] -0.028 | [12] 0.118 | [13] -0.032 | saracatinib -0.011 | sotrastaurin 0.002

IKBKG isoform 2 (UniProt Q9Y6K9)
inactive: ibrutinib 0.03 | [1] -0.011 | ralimetinib 0.043 | [2] -0.016 | [3] -0.023 | [4] 0.004 | [5] -0.049 | [6] 0.002 | [7] 0.002 | [8] -0.019 | vemurafenib 0.025 | [9] 0.003 | barasertib -0.019 | [10] 0.003 | volasertib 0.009 | [11] 0.019 | [12] 0.018 | [13] 0.063 | saracatinib 0.024 | sotrastaurin -0.039

IGBP1 (UniProt P78318)
inactive: ibrutinib 0.003 | [1] -0.011 | ralimetinib 0.003 | [2] 0.007 | [3] -0.003 | [4] 0.013 | [5] -0.01 | [6] 0.029 | [7] -0.013 | [8] -0.012 | vemurafenib -0.002 | [9] 0.039 | barasertib -0.007 | [10] 0.028 | volasertib 0.005 | [11] 0.015 | [12] -0.232 | [13] 0.001 | saracatinib 0.029 | sotrastaurin 0.021

HSPB11 (UniProt Q9Y547)
inactive: ibrutinib 0.036 | [1] 0.019 | ralimetinib 0.031 | [2] -0.048 | [3] -0.015 | [4] -0.024 | [5] -0.066 | [6] 0.016 | [7] 0.002 | [8] -0.002 | vemurafenib 0.012 | [9] 0.005 | barasertib -0.015 | [10] 0.002 | volasertib 0.078 | [11] -0.014 | [12] -0.137 | [13] 0.152 | saracatinib 0.032 | sotrastaurin -0.028

IFT74 (UniProt Q96LB3)
inactive: ibrutinib 0.005 | [1] -0.028 | ralimetinib 0.052 | [2] -0.112 | [3] 0.056 | [4] -0.045 | [5] -0.035 | [6] 0.06 | [7] 0.036 | [8] -0.072 | vemurafenib 0.018 | [9] 0.019 | barasertib 0.003 | [10] 0.164 | volasertib 0.073 | [11] -0.141 | [12] -0.18 | [13] 0.22 | saracatinib 0.024 | sotrastaurin 0.022

HSPA8 (UniProt E9PK54)
inactive: ibrutinib 0.065 | [1] -0.086 | ralimetinib -0.013 | [2] -0.132 | [3] 0.004 | [4] -0.019 | [5] 0.008 | [6] -0.076 | [7] -0.019 | [8] 0.014 | vemurafenib -0.047 | [9] 0.014 | barasertib -0.113 | [10] -0.071 | volasertib -0.056 | [11] 0.08 | [12] -0.144 | [13] 0.052 | saracatinib 0.108 | sotrastaurin 0.028

HSPBP1 (UniProt Q9NZL4)
inactive: ibrutinib 0.027 | [1] 0.003 | ralimetinib 0.006 | [2] -0.04 | [3] -0.006 | [4] -0.003 | [5] -0.042 | [6] -0.004 | [7] 0.008 | [8] -0.001 | vemurafenib -0.01 | [9] -0.005 | barasertib 0 | [10] 0.06 | volasertib 0.002 | [11] -0.009 | [12] -0.004 | [13] 0.038 | saracatinib 0.006 | sotrastaurin 0.012

2 consecutive records from above, for reference:
HSPB11 (UniProt Q9Y547)
inactive: ibrutinib 0.036 | [1] 0.019 | ralimetinib 0.031 | [2] -0.048 | [3] -0.015 | [4] -0.024 | [5] -0.066 | [6] 0.016 | [7] 0.002 | [8] -0.002 | vemurafenib 0.012 | [9] 0.005 | barasertib -0.015 | [10] 0.002 | volasertib 0.078 | [11] -0.014 | [12] -0.137 | [13] 0.152 | saracatinib 0.032 | sotrastaurin -0.028

IFT74 (UniProt Q96LB3)
inactive: ibrutinib 0.005 | [1] -0.028 | ralimetinib 0.052 | [2] -0.112 | [3] 0.056 | [4] -0.045 | [5] -0.035 | [6] 0.06 | [7] 0.036 | [8] -0.072 | vemurafenib 0.018 | [9] 0.019 | barasertib 0.003 | [10] 0.164 | volasertib 0.073 | [11] -0.141 | [12] -0.18 | [13] 0.22 | saracatinib 0.024 | sotrastaurin 0.022

Following part

IDE, A0A3B3ISG5
inactive: ibrutinib 0.021 | [1] -0.005 | ralimetinib 0 | [2] -0.013 | [3] -0.027 | [4] -0.007 | [5] -0.026 | [6] -0.008 | [7] 0.008 | [8] 0.006 | vemurafenib 0.005 | [9] 0.006 | barasertib -0.018 | [10] -0.014 | volasertib -0.009 | [11] -0.003 | [12] -0.013 | [13] -0.028 | saracatinib -0.022 | sotrastaurin 0.021

HTRA2 (UniProt O43464)
inactive: ibrutinib 0.041 | [1] -0.008 | ralimetinib 0.015 | [2] -0.017 | [3] -0.05 | [4] -0.008 | [5] -0.04 | [6] 0.032 | [7] -0.014 | [8] -0.022 | vemurafenib 0.024 | [9] 0.01 | barasertib -0.01 | [10] 0.067 | volasertib 0.002 | [11] -0.009 | [12] -0.05 | [13] 0.047 | saracatinib 0.025 | sotrastaurin 0.004

IGSF8 (UniProt Q969P0)
inactive: ibrutinib -0.013 | [1] -0.003 | ralimetinib -0.045 | [2] -0.102 | [3] -0.077 | [4] -0.137 | [5] -0.02 | [6] 0.053 | [7] 0.043 | [8] -0.02 | vemurafenib 0.011 | [9] 0.006 | barasertib 0.015 | [10] -0.194 | volasertib 0.027 | [11] 0.052 | [12] -0.126 | [13] 0.058 | saracatinib -0.063 | sotrastaurin -0.006

IDH3G (UniProt P51553)
inactive: ibrutinib -0.009 | [1] -0.029 | ralimetinib 0.022 | [2] -0.03 | [3] -0.014 | [4] -0.042 | [5] -0.005 | [6] 0.026 | [7] -0.029 | [8] 0.022 | vemurafenib -0.036 | [9] -0.014 | barasertib 0.014 | [10] 0.03 | volasertib -0.012 | [11] -0.043 | [12] -0.032 | [13] 0.015 | saracatinib 0.012 | sotrastaurin -0.026

ICAM1 (UniProt P05362)
inactive: ibrutinib -0.012 | [1] 0.032 | ralimetinib -0.027 | [2] 0.002 | [3] -0.005 | [4] -0.004 | [5] 0.007 | [6] -0.014 | [7] -0.019 | [8] -0.012 | vemurafenib 0.023 | [9] -0.008 | barasertib 0.126 | [10] 0.072 | volasertib -0.01 | [11] -0.005 | [12] -0.047 | [13] 0.03 | saracatinib -0.032 | sotrastaurin -0.04

ICAM5 (UniProt Q9UMF0)
inactive: ibrutinib 0.013 | [1] -0.01 | ralimetinib -0.127 | [2] -0.196 | [3] -0.034 | [4] -0.001 | [5] -0.062 | [6] -0.015 | [7] -0.049 | [8] -0.105 | vemurafenib 0.212 | [9] -0.005 | barasertib -0.011 | [10] 0.063 | volasertib -0.038 | [11] -0.156 | [12] 0.549 | [13] -0.048 | saracatinib -0.034 | sotrastaurin 0.036

IDH1 (UniProt O75874)
inactive: ibrutinib 0.004 | [1] -0.002 | ralimetinib 0.007 | [2] 0.005 | [3] 0.031 | [4] -0.006 | [5] 0.002 | [6] -0.019 | [7] 0.012 | [8] 0.035 | vemurafenib 0.009 | [9] 0.008 | barasertib 0.021 | [10] -0.063 | volasertib -0.067 | [11] 0.023 | [12] -0.08 | [13] -0.005 | saracatinib 0.016 | sotrastaurin -0.026

IKBIP isoform 4 (UniProt Q70UQ0)
inactive: ibrutinib 0.004 | [1] 0.019 | ralimetinib 0.022 | [2] -0.008 | [3] -0.016 | [4] 0.021 | [5] -0.014 | [6] 0.002 | [7] 0.022 | [8] 0.002 | vemurafenib -0.002 | [9] -0.005 | barasertib 0.026 | [10] 0.013 | volasertib 0.009 | [11] -0.016 | [12] -0.014 | [13] 0.003 | saracatinib -0.016 | sotrastaurin 0.055

HSPG2 (UniProt P98160)
inactive: ibrutinib -0.07 | [1] 0.035 | ralimetinib -0.035 | [2] -0.101 | [3] 0.006 | [4] 0.068 | [5] 0.008 | [6] 0.014 | [7] 0.043 | [8] -0.003 | vemurafenib 0.02 | [9] 0.009 | barasertib 0.134 | [10] -0.048 | volasertib -0.026 | [11] -0.026 | [12] -0.161 | [13] 0.179 | saracatinib 0.058 | sotrastaurin 0.014
